Experimental data taken from the supplement of paper PMC10735217.
Where a name gives a salt, the structure may show the parent alone. The list shows a part of the results. Single values are uncertain here, since repeats match poorly.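 Human kidney-derived cells stably carry a construct in which eight TEAD-binding elements drive luciferase, measured by luminescence in a drug-repurposing library screen. A hit is any compound whose signal exceeds the plate mean by more than five robust Z scores.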

System: HEK293A TEAD-LUC reporter
Assay: TEAD-luciferase reporter activity (YAP activation), robust Z score vs plate; higher = stronger YAP/TEAD activation
Conditions: 24 h

Row | SMILES | TEAD-luciferase reporter activity (compound concentration: 200 nM) | TEAD-luciferase reporter activity (compound concentration: 10 uM) | TEAD-luciferase reporter activity (compound concentration: 2 uM)
1 | CC(C)CCN1CCC2(CC1)NCc1ccccc1NC2=O | inactive: -0.1 | inactive: 0.369 | –
2 | Cc1cc(Oc2c(C3CC3)nn(CS(C)(=O)=O)c2C)cc(C)c1C#N | inactive: -0.0377 | inactive: -0.662 | inactive: 0.185
3 | CC(C)n1nc(-c2ccc3oc(N)nc3c2)c2c(N)ncnc21 | inactive: -0.508 | inactive: -1.85 | –
4 | CC(C)n1nc(-c2ccc3oc(N)nc3c2)c2c(N)ncnc21 [Sapanisertib] | – | – | inactive: -1.96
5 | CCCCOCCOc1ccc(-c2ccc3c(c2)C=C(C(=O)Nc2ccc([S@@+]([O-])Cc4cncn4CCC)cc2)CCCN3CC(C)C)cc1 [Cenicriviroc mesilate] | inactive: 0.194 | inactive: 2.19 | inactive: -0.271
6 | N[C@H](C(=O)O)[C@H](O)c1ccc(O)c(O)c1 | inactive: 0.86 | inactive: -1.32 | –
7 | N[C@H](C(=O)O)[C@H](O)c1ccc(O)c(O)c1 [droxidopa] | – | – | inactive: -2.88
8 | CC1(C)Cc2c(-c3ccccc3)c(-c3ccc(Cl)cc3)c(CC(=O)O)n2C1 [licofelone] | inactive: -1.47 | inactive: 3.31 | inactive: -0.534
9 | CN(C)/N=N/c1[nH]cnc1C(N)=O [Dacarbazine] | inactive: -0.00391 | inactive: -0.367 | inactive: -2.37
10 | CC(C)c1nc(-c2ccccc2)cc(-c2ccc(F)cc2)c1/C=C/[C@@H]1C[C@@H](O)CC(=O)O1 | inactive: -0.4 | inactive: -2.09 | inactive: -1.58
11 | CC(C)CCC(=O)CC1c2ccccc2C(=O)N1c1ccc2ccc(Cl)nc2n1 (stereo not given) [pagoclone] | inactive: 1.55 | inactive: -0.405 | inactive: -0.0176
12 | COc1cc(NS(=O)(=O)c2ccc(N)cc2)nc(C)n1 | inactive: 1.34 | inactive: -0.83 | inactive: -0.677
13 | CN(C/C=C(/c1ccc(-c2ccco2)cc1)c1ccsc1)CC(=O)O | inactive: -0.0454 | inactive: 2.78 | inactive: -0.134
14 | N=C(N)N1CCc2ccccc2C1 [Debrisoquine sulfate] | inactive: -0.494 | inactive: -1.54 | inactive: 0.873
15 | CC(C(=O)O)c1ccc(N2Cc3ccccc3C2=O)cc1 (stereo not given) [indoprofen] | – | – | inactive: -2.03
16 | CC(C(=O)O)c1ccc(N2Cc3ccccc3C2=O)cc1 (stereo not given) [Indoprofen] | inactive: 1.47 | inactive: -0.109 | –
17 | Cc1[nH]c(=O)c(C#N)cc1-c1ccccc1 | inactive: 0.751 | inactive: 1.83 | inactive: 1.54
18 | CCc1ccccc1NC(=O)c1ccc[nH]c1=O | inactive: -1.3 | inactive: 0.535 | inactive: 1.91
19 | O=C1OC(c2ccc(O)cc2)(c2ccc(O)cc2)c2ccccc21 | inactive: -2.12 | inactive: 2.27 | inactive: -1.65
20 | O=C(O)c1c2c(nc3ccc(F)cc13)-c1ccc(-c3ccccc3F)cc1CCC2 | inactive: -0.734 | inactive: -0.601 | inactive: -0.947

Two successive records out of the list so far:
Row | SMILES | TEAD-luciferase reporter activity (compound concentration: 200 nM) | TEAD-luciferase reporter activity (compound concentration: 10 uM) | TEAD-luciferase reporter activity (compound concentration: 2 uM)
13 | CN(C/C=C(/c1ccc(-c2ccco2)cc1)c1ccsc1)CC(=O)O | inactive: -0.0454 | inactive: 2.78 | inactive: -0.134
14 | N=C(N)N1CCc2ccccc2C1 [Debrisoquine sulfate] | inactive: -0.494 | inactive: -1.54 | inactive: 0.873
